PubChem BioAssay AID504774 | Drosophila RNAi Screening Center | 2011
The deposit covers about 23,000 reagents; shown is an unselected part of those that have a named target and a result. 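Values are quantile-normalised luminescence on an arbitrary scale; higher means more cells surviving MMS.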 The numbers tell different reagents against one gene apart. Names joined by + are all predicted targets of the reagent.

Purpose: 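Fly genes whose loss alters survival after alkylation damage to DNA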 (primary screen)
System: Drosophila Kc167 cells
Reagent: long dsRNA against Drosophila genes, about 0.25 µg dsRNA per well
Time to read-out: about 6 days: 3 days knock-down, then 3 days with or without MMS
Conditions: methyl methanesulphonate 0.004% (w/v) for 3 days after knock-down
Read-out: 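Viability in wells given MMS, read as ATP luminescence, normalised by quantiles plate by plate and averaged across replicates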
Scale: mean viability with MMS and viability with MMS: higher = more surviving cells after MMS

no.	Gene	reagent	mean viability with MMS	viability with MMS, replicate 1	viability with MMS, replicate 2
1	Dhps (Deoxyhypusine synthase)	1	3.32e6	3.69e6	3.75e6
2	CG10862	1	3.56e6	4.09e6	3.97e6
3	lncRNA:CR30009 (long non-coding RNA:CR30009)	1	3.61e6	4.08e6	4.06e6
4	Agpat3 (1-Acylglycerol-3-phosphate O-acyltransferase 3)	1	3.57e6	4.13e6	3.96e6
5	Fmo-1 (Flavin-containing monooxygenase 1)	1	3.42e6	4.19e6	3.79e6
6	drk (downstream of receptor kinase)	1	3.29e6	3.83e6	3.64e6
7	CG3566	1	3.67e6	3.91e6	4.42e6
8	squ (squash)	1	3.56e6	3.97e6	4.09e6
9	CG33695 + cana	1	3.36e6	3.87e6	3.70e6
10	CG33695 + cana	2	3.54e6	3.94e6	4.10e6
11	CG14391	1	3.47e6	3.95e6	3.96e6
12	CG5466	1	2.61e6	3.53e6	3.52e6
13	CG5466	2	3.79e6	4.14e6	4.44e6
14	CG17118	1	3.41e6	3.81e6	3.89e6
15	Wdr92 (WD repeat domain 92)	1	3.59e6	4.08e6	4.06e6
16	p130CAS + Dic61B	1	3.42e6	3.91e6	3.86e6
17	Gr64b (Gustatory receptor 64b)	1	3.58e6	4.02e6	4.07e6
18	CG33218 (retired record)	1	3.51e6	3.98e6	3.99e6
19	CG6287	1	3.57e6	4.15e6	3.97e6
20	CG33308	1	3.54e6	4.02e6	4.00e6
21	CG43317	1	3.65e6	4.10e6	4.20e6
22	CG12360 (retired record)	1	3.58e6	4.01e6	4.13e6
23	CG7126	1	3.39e6	3.75e6	3.96e6
24	cindr (CIN85 and CD2AP related)	1	3.45e6	3.86e6	3.98e6
25	cindr (CIN85 and CD2AP related)	2	3.40e6	3.82e6	3.82e6
26	CG14615	1	3.48e6	3.99e6	3.92e6
27	piwi (P-element induced wimpy testis)	1	3.52e6	4.01e6	3.99e6
28	ham (hamlet)	1	3.52e6	3.94e6	4.03e6
29	ham (hamlet)	2	3.80e6	4.14e6	4.10e6
30	ham (hamlet)	3	3.79e6	4.27e6	4.23e6
31	Rpn6 (Regulatory particle non-ATPase 6)	1	2.77e6	3.49e6	3.49e6
32	yellow-c + CIAPIN1	1	3.64e6	4.14e6	4.07e6
33	CG6959	1	3.65e6	4.12e6	4.06e6
34	mRpL37 (mitochondrial ribosomal protein L37)	1	3.64e6	4.13e6	4.04e6
35	hng2 (hinge2)	1	3.42e6	3.93e6	3.84e6
36	GC2	1	3.44e6	3.93e6	3.90e6
37	Or45b (Odorant receptor 45b)	1	3.58e6	3.96e6	4.14e6
38	Taf12L (TBP-associated factor 30kD subunit alpha-2)	1	3.64e6	4.14e6	4.08e6
39	TSG101 (Tumor susceptibility gene 101)	1	3.58e6	4.08e6	4.04e6
40	Sk2 (Sphingosine kinase 2)	1	3.37e6	3.83e6	3.87e6
41	CG1542	1	3.33e6	3.85e6	3.73e6
42	AttC (Attacin-C)	1	3.56e6	4.08e6	4.04e6
43	CG1894	1	3.56e6	4.02e6	4.03e6
44	CG17145	1	3.39e6	3.82e6	3.81e6
45	CG14000 + bchs	1	3.28e6	3.76e6	3.55e6

Not a retest: 3 of the entries above.
no.	Gene	reagent	mean viability with MMS	viability with MMS, replicate 1	viability with MMS, replicate 2
8	squ (squash)	1	3.56e6	3.97e6	4.09e6
9	CG33695 + cana	1	3.36e6	3.87e6	3.70e6
10	CG33695 + cana	2	3.54e6	3.94e6	4.10e6

Further records:
no.	Gene	reagent	mean viability with MMS	viability with MMS, replicate 1	viability with MMS, replicate 2
46	Trm7-32 (tRNA methyltransferase 7-32)	1	3.60e6	4.03e6	4.12e6
47	Uch-L5 (Ubiquitin carboxy-terminal hydrolase L5)	1	3.46e6	3.91e6	3.93e6
48	Ugt35C1 (UDP-glycosyltransferase family 35 member C1)	1	3.37e6	3.80e6	3.90e6
49	CG13733	1	3.52e6	4.04e6	3.95e6
50	Tsp42Ed (Tetraspanin 42Ed)	1	3.59e6	4.07e6	4.04e6
51	Msh6	1	3.62e6	4.12e6	4.07e6
52	Or85c (Odorant receptor 85c)	1	3.59e6	4.05e6	4.11e6
53	mRpS28 (mitochondrial ribosomal protein S28)	1	3.73e6	4.24e6	4.18e6
54	CG13868	1	3.45e6	3.93e6	3.90e6
55	sov (small ovary)	1	3.67e6	4.36e6	4.08e6
56	mtTFB1 + Ccdc56	1	3.71e6	4.11e6	4.32e6
57	Appl (beta amyloid protein precursor-like)	1	3.41e6	3.91e6	3.84e6
58	CG11983	1	3.54e6	4.09e6	3.94e6
59	CG15554	1	3.52e6	3.95e6	4.02e6
60	cal1 (chromosome alignment defect 1)	1	3.58e6	4.05e6	4.06e6
61	l(3)psg2 (lethal (3) persistent salivary gland 2)	1	3.46e6	3.84e6	4.00e6
62	CG13376	1	3.58e6	4.02e6	4.09e6
63	CG4465	1	3.57e6	4.01e6	4.08e6
64	CG17991	1	3.49e6	3.98e6	3.89e6
65	CG4404	1	3.32e6	3.83e6	3.75e6
66	Ir64a (Ionotropic receptor 64a)	1	3.40e6	3.83e6	3.87e6
67	Ir64a (Ionotropic receptor 64a)	2	3.67e6	4.20e6	4.14e6
68	CG14990	1	3.45e6	3.98e6	3.86e6
